Test: Reductive metabolism in liver S9 preparations
Format: in vitro ADME, NIH-III mice
Description: In vitro hepatic metabolism of SN30000 and M14 was studied using 9,000 g post-mitochondrial supernatants (S9) prepared from livers of female NIH-III mice. Metabolism at 37°C was measured by dilution of S9 to appropriate protein concentrations (measured by BCA protein assay) in sodium/potassium phosphate buffer (67 mM phosphate, pH 7.4) containing 5 mM MgCl2, 1 mM EDTA, 1 mM NADPH, 1 mM NADH and 150 μM test drug. The reaction was terminated by adding an equal volume of ice-cold MeOH and samples were analyzed by LC-MS/MS. Two methods were used to modify the oxygen concentration. […]
To address whether this reflects an oxygen-sensitive (one-electron reduction) or oxygen-insensitive (two-electron reduction) process, metabolism was compared in NIH-III mouse liver S9 preparations under 20% O2 or anoxia. […] The liver S9 intrinsic clearance, CLint, was calculated as Vmax/Km for M14 formation under anoxia and scaled to the whole liver based on the (unrealistic) assumption that the liver is entirely anoxic. This upper estimate of in vivo hepatic clearance was then predicted as previously described ([Gu et al., 2011b]) using the free fraction of SN30000 in mouse plasma determined by equilibrium dialysis (Supplementary Table 11).

## [O-][n+]1nc(CCCN2CCOCC2)[n+]([O-])c2cc3c(cc21)CCC3 [SN30000, 3-(3-Morpholinopropyl)-7,8-dihydro-6H-indeno[5,6-e][1,2,4]triazine 1,4-dioxide]
0.2% O2 gas phase
  O2 in solution at equilibrium at ∼50% inhibition of M14 formation: ~1.87 µM
Stirred S9, 4-parameter Hill model
  Gas phase O2 concentration for 50% inhibition of reductive metabolism to M14: 0.19 ± 0.03%

— publication PMC5554537 (Frontiers in Pharmacology, 2017)
